No constants are given. Whether binding was seen depends on the method and setting. Some binding calls cover weakened binding; strength is not graded here.
Legend:
Assay in all cases: peptide or protein array; synthetic 20-mer peptides (7-residue offset) on cellulose; probed 3 h at room temperature with 190 nM His-tagged lamin A tail in casein blocking solution (TBS-T, sucrose, pH 7.0); bound lamin detected with anti-lamin A/C clone 14 and AP-conjugated secondary antibody; two experiments, each with an antibodies-only control; both purified
[1] = target: T1, Csrp3 peptide s11 (human)
T1 sequence (peptide): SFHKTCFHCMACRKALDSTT

Chains of the proteins cited; added tags and fusions are not shown. Residues count along the entry.
UniProt P02545, residues 385-646: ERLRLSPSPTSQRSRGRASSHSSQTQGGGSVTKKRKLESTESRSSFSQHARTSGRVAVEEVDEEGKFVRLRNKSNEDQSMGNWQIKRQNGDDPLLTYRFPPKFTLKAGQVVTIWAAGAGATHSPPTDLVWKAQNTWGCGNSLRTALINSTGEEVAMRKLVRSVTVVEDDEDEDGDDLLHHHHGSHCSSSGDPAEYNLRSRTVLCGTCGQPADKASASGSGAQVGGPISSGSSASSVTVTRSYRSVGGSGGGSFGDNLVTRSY

[2] = target: T2, Csrp3 peptide s7 (aa 1–20) (human)
T2 sequence (peptide): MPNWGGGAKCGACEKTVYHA

[3] = target: T3, Csrp3 peptide s10 (human)
T3 sequence (peptide): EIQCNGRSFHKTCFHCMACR

[4] = target: T4, emerin peptide z10 (aa 183–202) (human)
T4 sequence (peptide): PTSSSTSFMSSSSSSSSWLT

Csrp3 peptide t5 (human) = target: T5, Csrp3 peptide t5 (human)
T5 sequence (peptide): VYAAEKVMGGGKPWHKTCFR

Csrp3 peptide s9 (human) = target: T6, Csrp3 peptide s9 (human)
T6 sequence (peptide): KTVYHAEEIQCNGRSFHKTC

Csrp3 peptide t6 (human) = target: T7, Csrp3 peptide t6 (human)
T7 sequence (peptide): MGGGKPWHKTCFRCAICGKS

[5] = target: T8, lamin C-specific peptide y3 (human)
T8 sequence (peptide): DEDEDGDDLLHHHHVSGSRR

binding [1]: binds weakly
binding [2]: binds weakly
binding [3]: binds weakly
binding [4]: binds weakly
binding (Csrp3 peptide t5 (human)): binds weakly
binding (Csrp3 peptide s9 (human)): binds weakly
binding (Csrp3 peptide t6 (human)): binds weakly
binding [5]: no binding (tested: 190 nM)
Substance: recombinant lamin A tail (residues 385–646 of human mature lamin A) (from UniProt P02545 385-646) (domain or fragment)

Source: PMC10626543, “Native lamin A/C proteomes and novel partners from heart and skeletal muscle in a mouse chronic inflammation model of human frailty” (Frontiers in Cell and Developmental Biology, 2023)
